# Source: US20200383327A1, “METHOD OF IMPROVING PLANT PERFORMANCE” (The State of Israel, Ministry of Agriculture & Rural …, priority 2018, published 2020)
# Assay: Sedimentation of Phe on leaves of treated petunia plants
# Conditions: up to 35 mM
smiles,measurement,setting,value
"N[C@@H](Cc1ccccc1)C(=O)O [Phe, Phenylalanine]",Sedimentation of Phe,"drenched, FIGS. 8A-8B",no sedimentation of the drenched Phe was noticed
same,Sedimentation of Phe,"sprayed, FIGS. 7A-7B",no sedimentation of the sprayed Phe was noticed
